# Results are given in words; binding and its absence hold for the method and conditions named. Binding seen in cells or lysates may run through a third protein. Some entries that bind do so weakly or less than the wild type.
# Target: signal transducer and activator of transcription 2 (STAT2) (human (endogenous in HEK293T)), P52630
# Assay: co-IP; HEK293T cells transfected with empty vector or Flag-UL23 plasmid for 46 h; RIPA lysates immunoprecipitated separately with anti-IRF9, anti-STAT1 and anti-STAT2 antibodies and protein A/G; immunoblot
# Settings: remark: other sources report otherwise
binder,measurement,value
"IFN regulatory factor 9 (IRF9), Q00978 1-393 (protein) MASGRARCTRKLRNWVVEQVESGQFPGVCWDDTAKTMFRIPWKHAGKQDFREDQDAAFFKAWAIFKGKYKEGDTGGPAVWKTRLRCALNKSSEFKEVPERGRMDVAEPYKVYQLLPPGIVSGQPGTQKVPSKRQHSSVSSERKEEEDAMQNCTLSPSVLQDSLNNEEEGASGGAVHSDIGSSSSSSSPEPQEVTDTTEAPFQGDQRSLEFLLPPEPDYSLLLTFIYNGRVVGEAQVQSLDCRLVAEPSGSESSMEQVLFPKPGPLEPTQRLLSQLERGILVASNPRGLFVQRLCPIPISWNAPQAPPGPGPHLLPSNECVELFRTAYFCRDLVRYFQGLGPPPKFQVTLNFWEESHGSSHTPQNLITVKMEQAFARYLLEQTPEQQAAILSLV",binding,binds

# Source: article PMC8301221
